The text below walks through data of paper PMC7819943, “Rice protein-binding microarrays: a tool to detect cis-acting elements near promoter regions in rice”.

Sequences of proteins named here, by UniProt entry; tags and fusion partners are left off.
UniProt Q0JBA9, entry or part of it: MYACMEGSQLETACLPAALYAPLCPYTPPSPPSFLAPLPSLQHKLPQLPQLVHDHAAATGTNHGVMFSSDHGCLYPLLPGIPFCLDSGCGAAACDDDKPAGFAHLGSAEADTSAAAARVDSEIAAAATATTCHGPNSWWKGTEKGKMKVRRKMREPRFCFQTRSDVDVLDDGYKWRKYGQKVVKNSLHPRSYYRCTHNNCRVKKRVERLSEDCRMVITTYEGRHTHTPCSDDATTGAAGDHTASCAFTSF

Some of the results follow.

In this assay the target is OsWRKY34 (Oryza sativa, UniProt Q0JBA9 1-250). The experiment in a line: protein-binding microarray (RPBM); PBS, 2% BSA, 51.3 ng/ul salmon testes DNA, 50 uM zinc acetate, 200 nM TF, 25 C, 1 h; high values mean tight binding. Conditions: protein: recombinant; tags: N-terminal polyhistidine and DsRed monomer fusion (pET32a); label: CyDye5-dUTP incorporated in the synthesized complementary strand; 3' TTTTT single-stranded linker to array surface; dsDNA, one strand shown. A digest of the protocol:
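The binding signal is fluorescence intensity per array feature (arbitrary units). Readings came from an Axon 4000B scanner after a washed, 2% BSA-blocked, double-stranded custom Agilent array had been incubated for 1 h at 25 °C with 200 nM protein and 50 µM zinc acetate. The protein was a Ni–NTA-purified transcription factor fused N-terminally to polyhistidine and DsRed, expressed in E. coli BL21-CodonPlus.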
For the sequence “AAAAATGGCGTTTTCTCTCCATTTTCCACGTCATCATGGTCGGAGTCACCTAGTGCAG”, the binding signal was 9470 fluorescence intensity (a.u.).
Consider “ATCCCTACCAATGAGTTAACTCACTTTTATTGGTACATATCGGAGTCACCTAGTGCAG”, for which the binding signal is 8370 fluorescence intensity (a.u.).
Then “CTCACGCGCTGCACCGCCGATACCCCACCCGCTGCTAGTTCGGAGTCACCTAGTGCAG”, with 8670 fluorescence intensity (a.u.); and “TAATAGTTGGTCACGTCATATCCATTGCATGCAGCTCATCCGGAGTCACCTAGTGCAG”, with 9730 fluorescence intensity (a.u.); and “TAATTACCTCTCTTTAGTTTTGGGGTATGTGTGCTTGGTTCGGAGTCACCTAGTGCAG”, with 9680 fluorescence intensity (a.u.).
In the case of “GAAGGGATTGGGTGAAATTACAGGGGCATGTAGGTAATTGCGGAGTCACCTAGTGCAG”, the binding signal is 10000 fluorescence intensity (a.u.).
Turning to “AAACATGTGCTAAAAAGTCAACGGTGTCAAATATTTCGAACGGAGTCACCTAGTGCAG”, the binding signal was 15600 fluorescence intensity (a.u.).
As to “ACTCCTCTCTCTGCTTCGTTTTCATCTTCAGGGCAATGGCCGGAGTCACCTAGTGCAG”, the binding signal is 10100 fluorescence intensity (a.u.).
Consider “TTTTTCTTATGTTTTGTAATAATCTGTTTTGCACACGCATCGGAGTCACCTAGTGCAG”, for which the binding signal is 8740 fluorescence intensity (a.u.).
With “ATGTCTTTTGGTGGGTGAGAAATTATTTCCTTAACCCATTCGGAGTCACCTAGTGCAG”, the binding signal is 8890 fluorescence intensity (a.u.).
Consider “CATCTGAGTACCTCACATGTTGAACATCTCCCTGTACTTACGGAGTCACCTAGTGCAG”, for which the binding signal is 8980 fluorescence intensity (a.u.).
As for “TACTTCTCGTTTTTTCTTTATCTTTTACTTTCACATAAATCGGAGTCACCTAGTGCAG”, the binding signal is 9950 fluorescence intensity (a.u.).
Turning to “TTTTCTTTTTTGCCTTTGTTTGTCCCATTTTTGTTGGGTTCGGAGTCACCTAGTGCAG”, the binding signal was 12600 fluorescence intensity (a.u.).
As for “ATTCCTATATTTTTCCTATGTTTTGTAATCCTCTGTTTTACGGAGTCACCTAGTGCAG”, the binding signal was 12600 fluorescence intensity (a.u.).
On to “TGTGTGTTATGAGTAGCTTGTGGTATGGATTCTTCTGAAGCGGAGTCACCTAGTGCAG”, for which the binding signal was 9960 fluorescence intensity (a.u.).
Consider “AACCTTGTACTGTGCCATCTTGTGCAATGCCATTGATGTTCGGAGTCACCTAGTGCAG”, for which the binding signal is 9180 fluorescence intensity (a.u.).
With “ACCCAAAATTTTCTTTTCGCGAACTAAACAGGCCCTTAATCGGAGTCACCTAGTGCAG”, the binding signal is 9000 fluorescence intensity (a.u.).
For “GCGCGCCAACTAACGTACACCCACCCGCTCATCTATATAACGGAGTCACCTAGTGCAG” the value was 9170 fluorescence intensity (a.u.).
Regarding “TTTTGCGGGATTTCTTGGCCTTTGTGTCTGGGATTCGTGGCGGAGTCACCTAGTGCAG”, the binding signal is 9430 fluorescence intensity (a.u.).
With “GAAAGCGAGCAAGCAGCATCTCTCTTTGTTCTTTTCTTAACGGAGTCACCTAGTGCAG”, the binding signal is 9390 fluorescence intensity (a.u.).
For “CCGTTCTCTCATCTCTGCTTTCCAGTGCTTCCATCAACAACGGAGTCACCTAGTGCAG” the value was 8740 fluorescence intensity (a.u.); for “TTCTCGAAAATCCTAGCTGCCTGCAAGTTTTCTTTCTTTGCGGAGTCACCTAGTGCAG”, 8710 fluorescence intensity (a.u.); for “TCGACGGCGCCACCACAATCGTGGTCCACCGTGACAAGCCCGGAGTCACCTAGTGCAG”, 8840 fluorescence intensity (a.u.).
As to “GCCATCCTCCGCGACGCACATCGTCCGTCCCACCACGATGCGGAGTCACCTAGTGCAG”, the binding signal was 10400 fluorescence intensity (a.u.).
Regarding “CAAACGATCACCATAGTTGTCATCCTCTGTCACCATAGTTCGGAGTCACCTAGTGCAG”, the binding signal is 8360 fluorescence intensity (a.u.).
Take “CTAGGGAGTGACGGCGGAGGTGGTGGGGTCAAGTTCAAGACGGAGTCACCTAGTGCAG”: the binding signal is 10700 fluorescence intensity (a.u.).
For “AGTATTTTTTCCCATCTGGTCAATTGATGTATCGAATCTTCGGAGTCACCTAGTGCAG” the value was 8080 fluorescence intensity (a.u.).
For “GATCACCTCAGAGCTGGCTGCCCTATTTGTTTTTGCAGCCCGGAGTCACCTAGTGCAG” the value was 10100 fluorescence intensity (a.u.).
“GCTCCCATGATGCGCTCTCGCCGCCTCGCCATGTGACCCGCGGAGTCACCTAGTGCAG”: the binding signal was 8810 fluorescence intensity (a.u.).
In the case of “TCCTCATTGAACCATTCCGCCTCGCTCCCAGCTCCATTACCGGAGTCACCTAGTGCAG”, the binding signal was 11300 fluorescence intensity (a.u.).
For “CTCCATTCTTGTTTGTTCCTTCTTTGCTTTCAGCTGCTTTCGGAGTCACCTAGTGCAG”, the binding signal was 15000 fluorescence intensity (a.u.).
Take “TACAGCCTTACTACTTCTTTATAATCTCCACGAAAGAACACGGAGTCACCTAGTGCAG”: the binding signal was 8060 fluorescence intensity (a.u.).
For “TGCTTCGCATTTTGTTGCGTTGTTGCTGTTTTTTTTTTCGCGGAGTCACCTAGTGCAG” the value was 8320 fluorescence intensity (a.u.).
As to “TTAGTTAATCATTGTTGTTCTATATATCTTTTCTTTATTTCGGAGTCACCTAGTGCAG”, the binding signal is 8580 fluorescence intensity (a.u.).
With “ACACATCCTATTACAGAATCTGGATATACATCTGTCCAAACGGAGTCACCTAGTGCAG”, the binding signal is 8110 fluorescence intensity (a.u.).
With “AAAATCTTGGTCTCAAGCCTTCCATGATGCTGTCATATCTCGGAGTCACCTAGTGCAG”, the binding signal was 9660 fluorescence intensity (a.u.).
Consider “AACCCACCTCTTTCGTTTTCCGCGCGTACGCTTTTCAAACCGGAGTCACCTAGTGCAG”, for which the binding signal is 8710 fluorescence intensity (a.u.).
Take “TCGACGATTCTCAGCCCAGAAAGCCTGCTACAGTACTACACGGAGTCACCTAGTGCAG”: the binding signal is 8280 fluorescence intensity (a.u.).
Regarding “TCCTATCGCTCGATCGCCTCGCCTCGCGTCCCCGCGATTTCGGAGTCACCTAGTGCAG”, the binding signal is 10400 fluorescence intensity (a.u.).
Take “CTCTCGATCCGGCTTCTTTCAGCTTACGTCCCCGTCACCACGGAGTCACCTAGTGCAG”: the binding signal was 10600 fluorescence intensity (a.u.).
As to “GCAGTTTGCTTTTGCTCCACCCACCACCACCGCTGCTTCCCGGAGTCACCTAGTGCAG”, the binding signal is 11400 fluorescence intensity (a.u.).
Then “TTATTTTCCTAATGCACTCATCTTTGACTTAACTGCACCCCGGAGTCACCTAGTGCAG”, with 10800 fluorescence intensity (a.u.).
